Earlier results, collected in patent US20230321053A1, “(1R,3S)-3-((5-CYANO-4-PHENYLTHIAZOL-2-YL)CARBAMOYL)CYCLOPENTANE-1-CARBOXYLIC ACID AND DERIVATIVES THEREOF FOR USE IN THE TREATMENT OF AIRWAY DISEASES” (PALOBIOFARMA, S.L., priority 2020, published 2023).
At least one compound was matched to its structure with a doubt left.

Tested on: allergic rabbits
Conditions: HDM challenge, L1 only up to 6 hours after challenge; cited from earlier work

Compound: CC(C)(O)c1ccccc1CC[C@@H](SCC1(CC(=O)O)CC1)c1cccc(/C=C/c2ccc3ccc(Cl)cc3n2)c1 [montelukast]
- eosinophil count in bronchoalveolar lavage fluid (BALF): capable of reducing eosinophil count
